PubChem BioAssay AID743121 | NCATS, 2013
In all, the deposit lists about 26,000 reagents; shown is a part drawn at random. Of all reagents, 167 (0.63%) were called active. 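Calls are per gene from RSA p-values that are not deposited; an individual active-marked siRNA can sensitise only weakly.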 Reagents against one gene are numbered here. Further read-outs or replicates are left out here.

- Purpose: 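Knock-downs that sensitise breast cancer cells to camptothecin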 (primary screen)
- Cell system: MDA-MB-231 cells, a human breast cancer line
- Reagents: single siRNA against human genes, 20 nM siRNA (0.8 pmol per well)
- Duration: 120 h (drug added 48 h after transfection, read 72 h later)
- Challenge: camptothecin 20 nM (about EC30) for 72 h; vehicle 0.1% DMSO in parallel plates
- Read-out: 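CellTiter-Glo ATP signal, scaled to control siRNA as percent viability; sensitisation given as log2 of untreated divided by camptothecin-treated viability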
- Scale: log2 vehicle/camptothecin viability: higher = stronger sensitisation to camptothecin
- Rule for the call: 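Each gene scored by redundant siRNA activity (RSA) over its individual siRNA ratios; a gene is called active at p < 0.001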

RNF182 #1: log2 vehicle/camptothecin viability = 0.225; Outcome = inactive
RNF182 #2: log2 vehicle/camptothecin viability = -0.254; Outcome = inactive
RNF182 #3: log2 vehicle/camptothecin viability = -0.274; Outcome = inactive
RNF182 #4: log2 vehicle/camptothecin viability = 0.041; Outcome = inactive
SLC9A1 #1: log2 vehicle/camptothecin viability = 0.0154; Outcome = inactive
SLC9A1 #2: log2 vehicle/camptothecin viability = 0.0837; Outcome = inactive
SLC9A1 #3: log2 vehicle/camptothecin viability = -0.172; Outcome = inactive
SLC9A1 #4: log2 vehicle/camptothecin viability = -0.566; Outcome = inactive
SPP1 #1: log2 vehicle/camptothecin viability = -0.167; Outcome = inactive
SPP1 #2: log2 vehicle/camptothecin viability = -0.444; Outcome = inactive
SPP1 #3: log2 vehicle/camptothecin viability = -0.163; Outcome = inactive
SPP1 #4: log2 vehicle/camptothecin viability = 0.0237; Outcome = inactive
TRIM23 #1: log2 vehicle/camptothecin viability = 0.388; Outcome = inactive
TRIM23 #2: log2 vehicle/camptothecin viability = -0.143; Outcome = inactive
TRIM23 #3: log2 vehicle/camptothecin viability = 0.0549; Outcome = inactive
LONP1 #1: log2 vehicle/camptothecin viability = -0.319; Outcome = inactive
LONP1 #2: log2 vehicle/camptothecin viability = -0.481; Outcome = inactive
LONP1 #3: log2 vehicle/camptothecin viability = -0.0895; Outcome = inactive
ZBTB16 #1: log2 vehicle/camptothecin viability = -0.144; Outcome = inactive
ZBTB16 #2: log2 vehicle/camptothecin viability = -0.132; Outcome = inactive
ZBTB16 #3: log2 vehicle/camptothecin viability = -0.228; Outcome = inactive
ZBTB16 #4: log2 vehicle/camptothecin viability = -0.14; Outcome = inactive
NLN #1: log2 vehicle/camptothecin viability = -0.099; Outcome = inactive
NLN #2: log2 vehicle/camptothecin viability = -0.0946; Outcome = inactive
NLN #3: log2 vehicle/camptothecin viability = -0.172; Outcome = inactive
NLN #4: log2 vehicle/camptothecin viability = 0.478; Outcome = inactive
SIGLEC17P #1: log2 vehicle/camptothecin viability = -0.279; Outcome = inactive
SIGLEC17P #2: log2 vehicle/camptothecin viability = -0.0643; Outcome = inactive
SIGLEC17P #3: log2 vehicle/camptothecin viability = -0.0137; Outcome = inactive
SIGLEC17P #4: log2 vehicle/camptothecin viability = -0.182; Outcome = inactive
EPHA1 #1: log2 vehicle/camptothecin viability = -0.2; Outcome = inactive
EPHA1 #2: log2 vehicle/camptothecin viability = -0.114; Outcome = inactive
EPHA1 #3: log2 vehicle/camptothecin viability = -0.0386; Outcome = inactive
EPHA1 #4: log2 vehicle/camptothecin viability = 0.0391; Outcome = inactive
ABCC8 #1: log2 vehicle/camptothecin viability = -0.126; Outcome = inactive
ABCC8 #2: log2 vehicle/camptothecin viability = 0.681; Outcome = inactive
ABCC8 #3: log2 vehicle/camptothecin viability = -0.0881; Outcome = inactive

5 entries already listed, ordered by “log2 vehicle/camptothecin viability”, highest first:
SLC9A1 #2: log2 vehicle/camptothecin viability = 0.0837; Outcome = inactive
RNF182 #4: log2 vehicle/camptothecin viability = 0.041; Outcome = inactive
SLC9A1 #1: log2 vehicle/camptothecin viability = 0.0154; Outcome = inactive
RNF182 #2: log2 vehicle/camptothecin viability = -0.254; Outcome = inactive
RNF182 #3: log2 vehicle/camptothecin viability = -0.274; Outcome = inactive
